Laboratory results reported in patent publication US20070092577A1, “Dietary calcium for reducing the production of reactive oxygen species” (University of Tennessee Research Foundation, priority 2005, published 2007).
At least one compound was matched to its structure with a doubt left.

Tested on: Mitochondrial potential in cultured wild-type 3T3-L1 adipocytes
Assay: Mitochondrial membrane potential (JC-1)
Format: cell-based, murine
Conditions: nifedipine 10 μmol/L with H2O2 100 nmol/L, 48 hours
Method: 3T3-L1 preadipocytes were incubated at a density of 8000 cells/cm^2 (10 cm^2 dish) and grown in Dulbecco's modified Eagle's medium (DMEM) containing 10% FBS and antibiotics (adipocyte medium) at 37° C. in 5% CO2 in air. Confluent preadipocytes were induced to differentiate with a standard differentiation medium consisting of DMEM-F 10 (1:1, vol/vol) medium supplemented with 1% FBS, 1 μM dexamethasone, IBMX (0.5 mM) and antibiotics (1% Penicillin-Streptomycin). Preadipocytes were maintained in this differentiation medium for 3 days and subsequently cultured in adipocyte medium. Cultures were re-fed every 2-3 days to allow 90% of cells to reach full differentiation before conducting chemical treatment. Chemicals were freshly diluted in adipocyte medium before treatment. […] Cell viability was measured via trypan blue exclusion.
Mitochondrial membrane potential was analyzed fluorometrically with a lipophilic cationic dye JC-1 (5,5′,6,6′-tetrachloro-1,1′,3,3′-tetraethylbenzimidazol carbocyanine iodide) using a mitochondrial potential detection kit (Biocarta, San Diego, Calif.). Mitochondrial potential was determined as the ratio of red fluorescence (excitation 550 nm, emission 600 mn) and green fluorescence (excitation 485 nm, emission 535 nm) using a fluorescence microplate reader.

COC(=O)C1=C(C)NC(C)=C(C(=O)OC)C1c1ccccc1[N+](=O)[O-] [nifedipine]
effect on H2O2 induced increase in mitochondrial potential: suppressed
